Source: paper PMC8384837
Positions count from the first letter of the chain named. The list shows a part of the results. For some of these results: At the low end of the ranking the order means little.

Assays:
Conditions in all cases: yeast three-hybrid, YBZ-1, SC-Leu-His + 0.5 mM 3-AT, 4 days
[1] = target: T1, PUM1 PUF domain R3-GCD C935G + R936C + Q939D (Homo sapiens) (UniProt Q14671)
T1 sequence: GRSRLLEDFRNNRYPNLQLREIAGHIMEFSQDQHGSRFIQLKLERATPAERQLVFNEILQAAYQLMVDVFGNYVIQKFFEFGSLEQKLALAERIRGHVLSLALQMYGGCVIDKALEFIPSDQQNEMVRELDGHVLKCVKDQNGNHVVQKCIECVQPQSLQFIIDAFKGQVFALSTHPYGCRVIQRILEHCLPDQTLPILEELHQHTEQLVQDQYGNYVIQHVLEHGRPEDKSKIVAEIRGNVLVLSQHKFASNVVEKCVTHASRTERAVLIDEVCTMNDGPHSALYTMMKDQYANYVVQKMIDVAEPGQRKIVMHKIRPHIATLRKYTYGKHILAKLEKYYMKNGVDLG

[2] = target: T2, PUM1 PUF domain R3-GCE C935G + R936C + Q939E (Homo sapiens) (UniProt Q14671)
T2 sequence: T1 sequence with D112E

[3] = target: T3, PUM1 PUF domain R3-GPE C935G + R936P + Q939E (UniProt Q14671)
T3 sequence: T1 sequence with C109P, D112E

[4] = target: T4, PUM1 PUF domain R3-KSG C935K + R936S + Q939G (Homo sapiens) (UniProt Q14671)
T4 sequence: T1 sequence with G108K, C109S, D112G

[5] = target: T5, PUM1 PUF domain R3-KSS C935K + R936S + Q939S (Homo sapiens) (UniProt Q14671)
T5 sequence: T1 sequence with G108K, C109S, D112S

[6] = target: T6, PUM1 PUF domain R3-LRC C935L + Q939C (Homo sapiens) (UniProt Q14671)
T6 sequence: T1 sequence with G108L, C109R, D112C

[7] = target: T7, PUM1 PUF domain R3-QPR C935Q + R936P + Q939R (Homo sapiens) (UniProt Q14671)
T7 sequence: T1 sequence with G108Q, C109P, D112R

[8] = target: T8, PUM1 PUF domain R3-RAF C935R + R936A + Q939F (Homo sapiens) (UniProt Q14671)
T8 sequence: T1 sequence with G108R, C109A, D112F

[9] = target: T9, PUM1 PUF domain R3-RAR C935R + R936A + Q939R (Homo sapiens) (UniProt Q14671)
T9 sequence: T1 sequence with G108R, C109A, D112R

[10] = target: T10, PUM1 PUF domain R3-RAS C935R + R936A + Q939S (Homo sapiens) (UniProt Q14671)
T10 sequence: T1 sequence with G108R, C109A, D112S

[11] = target: T11, PUM1 PUF domain R3-RDS C935R + R936D + Q939S (UniProt Q14671)
T11 sequence: T1 sequence with G108R, C109D, D112S

[12] = target: T12, PUM1 PUF domain R3-RER C935R + R936E + Q939R (UniProt Q14671)
T12 sequence: T1 sequence with G108R, C109E, D112R

[13] = target: T13, PUM1 PUF domain R3-RGG C935R + R936G + Q939G (Homo sapiens) (UniProt Q14671)
T13 sequence: T1 sequence with G108R, C109G, D112G

[14] = target: T14, PUM1 PUF domain R3-RGR C935R + R936G + Q939R (Homo sapiens) (UniProt Q14671)
T14 sequence: T1 sequence with G108R, C109G, D112R

[15] = target: T15, PUM1 PUF domain R3-RPG C935R + R936P + Q939G (Homo sapiens) (UniProt Q14671)
T15 sequence: T1 sequence with G108R, C109P, D112G

[16] = target: T16, PUM1 PUF domain R3-RPH C935R + R936P + Q939H (UniProt Q14671)
T16 sequence: T1 sequence with G108R, C109P, D112H

[17] = target: T17, PUM1 PUF domain R3-RPV C935R + R936P + Q939V (Homo sapiens) (UniProt Q14671)
T17 sequence: T1 sequence with G108R, C109P, D112V

[18] = target: T18, PUM1 PUF domain R3-RPW C935R + R936P + Q939W (UniProt Q14671)
T18 sequence: T1 sequence with G108R, C109P, D112W

[19] = target: T19, PUM1 PUF domain R3-RQR C935R + R936Q + Q939R (Homo sapiens) (UniProt Q14671)
T19 sequence: T1 sequence with G108R, C109Q, D112R

[20] = target: T20, PUM1 PUF domain R3-RQS C935R + R936Q + Q939S (UniProt Q14671)
T20 sequence: T1 sequence with G108R, C109Q, D112S

Sequence	binding signal (log2 enrichment (interaction score)) [1]	binding signal (log2 enrichment (interaction score)) [2]	binding signal (log2 enrichment (interaction score)) [3]	binding signal (log2 enrichment (interaction score)) [4]	binding signal (log2 enrichment (interaction score)) [5]	binding signal (log2 enrichment (interaction score)) [6]	binding signal (log2 enrichment (interaction score)) [7]	binding signal (log2 enrichment (interaction score)) [8]	binding signal (log2 enrichment (interaction score)) [9]	binding signal (log2 enrichment (interaction score)) [10]	binding signal (log2 enrichment (interaction score)) [11]	binding signal (log2 enrichment (interaction score)) [12]	binding signal (log2 enrichment (interaction score)) [13]	binding signal (log2 enrichment (interaction score)) [14]	binding signal (log2 enrichment (interaction score)) [15]	binding signal (log2 enrichment (interaction score)) [16]	binding signal (log2 enrichment (interaction score)) [17]	binding signal (log2 enrichment (interaction score)) [18]	binding signal (log2 enrichment (interaction score)) [19]	binding signal (log2 enrichment (interaction score)) [20]
GGCUAGAACUAGUGGAUCCCCCGGCGCCCGGCGGCUCGAGCCCGGGUAAGUGUAAAUAGUCUGCAUGCCGCCGGGCGCCAUGCCUGCAGGUCGACUCUAGAAAACAUG	0.1	-1.49	-2.66	-1.22	-0.53	-2.15	-1.53	-1.72	-0.68	-1.9	< -9	< -9.27	-1.74	-1.7	-1.29	-2.55	-0.29	-3.61	-0.8	< -7.82
GGCUAGAACUAGUGGAUCCCCCGGCGCCCGGCGGCUCGAGCCCGGGUAAGUGUAAGUAGUCUGCAUGCCGCCGGGCGCCAUGCCUGCAGGUCGACUCUAGAAAACAUG				-0.34	0.22		0.44	-1.56	0.38	0.01	< -9.22	-5.45	-0.89	-1.43	-0.33	< -8	-1.78	< -7.2	0.2	-5.71
GGCUAGAACUAGUGGAUCCCCCGGCGCCCGGCGGCUCGAGCCCGGGUAAGUGUAAUUAGUCUGCAUGCCGCCGGGCGCCAUGCCUGCAGGUCGACUCUAGAAAACAUG	-0.01	-0.26	-5.35			0.32														
